Assay results reported in the supplement of paper PMC8551327.
Structures can show the parent of a compound that is named as a salt. Some of the results follow. Rule as the data show it: active = 1.25 or more and inactive = the rest. Most values come without repeats; read them as rough.

Tested on: Kcc2-LUC knock-in mouse primary cortical neurons (Kcc2 promoter reporter)
Assay: Kcc2 promoter-driven luciferase activity relative to vehicle control (fold of vehicle (ratio)); higher = stronger Kcc2 promoter activation (Kcc2 expression enhancer)
Conditions: 100 nM; 48 h

Structure (SMILES)	Kcc2 promoter-driven luciferase activity
COC(=O)c1ccc(NCc2cc(O)ccc2O)cc1 [methyl 4-[(2,5-dihydroxyphenyl)methylamino]benzoate]	inactive: 0.95
CCOC(=O)C(C)NC(=O)N(C)C12CC3CC(CC(C3)C1)C2 (stereo unspecified) [Ethyl 2-[[1-adamantyl(methyl)carbamoyl]amino]propanoate]	inactive: 0.91
CC(CN(C)C)C(=O)c1ccccc1C(=O)O (stereo unspecified)	active: 1.31
COC(=O)c1c[nH]c2c1-c1cc(C(=O)OCc3ccccc3)n(S(=O)(=O)c3ccc(C)cc3)c1C(=O)C2=O	active: 1.28
Cc1cc(N(C)C)ccc1N=Nc1ccc2ncccc2c1 [N,N,3-Trimethyl-4-(quinolin-6-yldiazenyl)aniline]	inactive: 0.92
Nc1nc(-c2cccs2)cs1 [4-(Thiophen-2-yl)thiazol-2-amine]	inactive: 1.07
Nc1ccc2nc3ccc(=O)cc-3n(-c3ccccc3)c2c1 [8-Amino-10-phenylphenazin-2-one]	inactive: 0.97
CN(C)c1ccc2c(SCC(=O)OCC(=O)[C@@]3(O)CC[C@H]4[C@@H]5CCC6=CC(=O)C=C[C@]6(C)[C@H]5C(=O)C[C@@]43C)c3ccc(N(C)C)cc3nc2c1 [Predorine]	inactive: 1.03
CC(=O)N(C)c1ccc(Nc2cc(C)[nH]c3ccc4ncnc4c23)cc1 [Acodazole hydrochloride]	inactive: 1.1
CC(CN1CC(=O)NC(=O)C1)N1CC(=O)NC(=O)C1 (stereo unspecified) [Razoxane]	inactive: 0.24
CC(C)C1=C(O)C2=C(C(=O)C1=O)C1(C)CCCC(C)(C)C1CC2O (stereo unspecified) [Horminon]	inactive: 1.09

As a short view, part of the list above.
Structure (SMILES)	Kcc2 promoter-driven luciferase activity
Nc1nc(-c2cccs2)cs1 [4-(Thiophen-2-yl)thiazol-2-amine]	inactive: 1.07
Nc1ccc2nc3ccc(=O)cc-3n(-c3ccccc3)c2c1 [8-Amino-10-phenylphenazin-2-one]	inactive: 0.97
CN(C)c1ccc2c(SCC(=O)OCC(=O)[C@@]3(O)CC[C@H]4[C@@H]5CCC6=CC(=O)C=C[C@]6(C)[C@H]5C(=O)C[C@@]43C)c3ccc(N(C)C)cc3nc2c1 [Predorine]	inactive: 1.03
